{
  "source": "PubChem BioAssay AID2685",
  "about": "(National Center for Advancing Translational Sciences (NCATS), 2010)",
  "note": "Hit rate of the full screen: of about 320,000 compounds, about 2,100 (0.66%) were called active. Inconclusive results, whose numbers are uncertain, are shown with a selection of clear calls. Calls follow the shape of the dose curve; as a rule, active = well fitted inhibition curve with a large enough effect in the signal ratio, with a control signal flat (not every such curve was filed as active); inconclusive = small, poorly fitted or top-dose-only effect, or effect the other way, or a change in a side signal; inactive = flat fitted curve, though single readings scatter; the % refers to the signal ratio. Where the call is inconclusive, the potency comes from a doubtful curve fit. % is scaled to controls: 0 for no effect and ±100 for the full control effect; potency is read from the fitted curve at half-maximal effect.",
  "data": [
    {"experiment": "qHTS Assay for Lipid Storage Modulators in Drosophila S3 Cells", "conditions": "BODIPY lipid droplet fluorescence, 18-24 h, cells fed with added oleic acid; lipid storage change, negative = inhibition: at 46.1 µM (top of the series) unless noted", "summary_of_the_method": "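Laser-scanning cytometry quantifies lipid droplet accumulation (500–530 nm total intensity; droplet/cell object ratio) in oleic acid-fed (400 uM added) Drosophila S3 cells treated with a concentration series. 20 uM Triacsin C defined 100% inhibition.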", "values": [
      {"smiles": "Cn1c(=O)c2c(ncn2CC(=O)OCC(=O)NCc2ccccc2Cl)n(C)c1=O", "lipid storage change, negative = inhibition": "inconclusive: -8.01%"},
      {"smiles": "Cc1ccc(S(=O)(=O)N(C)C)cc1NC(=O)COC(=O)CCCOc1ccccc1", "lipid storage change, negative = inhibition": "inconclusive: 24.2%"},
      {"smiles": "CC(C)CC(=O)NC(=S)Nc1ccc(N2CCN(C(=O)c3cccs3)CC2)cc1", "lipid storage change, negative = inhibition": "inconclusive: -31.7%"},
      {"smiles": "NS(=O)(=O)c1ccc(NC(=O)COC(=O)c2ccco2)cc1", "lipid storage change, negative = inhibition": "inconclusive: 58%"},
      {"smiles": "Cc1ccc(C)c(S(=O)(=O)N2CCCOC2CNC(=O)C(=O)NC2CCCCC2)c1", "note": "(stereo unspecified)", "Potency": "inconclusive: 0.013 µM [falling, full curve, poor fit]"},
      {"smiles": "COc1ccc(NC(=O)CCCC(=O)c2ccccc2)cc1", "lipid storage change, negative = inhibition": "inconclusive: 18.3%"},
      {"smiles": "CC(C(=O)OCC(=O)N(C)C1(C#N)CCCCC1)N1C(=O)c2ccccc2C1=O", "note": "(stereo unspecified)", "Potency": "inconclusive: 1.84 µM [falling, partial curve]"},
      {"smiles": "Cc1nc(C(=O)N(C)C)nn1-c1ccc(Cl)cc1Cl", "lipid storage change, negative = inhibition": "inconclusive: -32.4% [at 0.0737 µM]"},
      {"smiles": "COC(=O)c1c(C)[nH]c(C(=O)C(C)OC(=O)C2CC2C)c1C", "note": "(stereo unspecified)", "Potency": "inconclusive: 29.1 µM [activator, single point]"},
      {"smiles": "NS(=O)(=O)c1ccc(CNC(=O)/C=C/c2ccccc2)cc1", "lipid storage change, negative = inhibition": "inactive: -14.1%"},
      {"smiles": "CC(=O)Nc1ccc(OC(=O)c2cccnc2)cc1", "lipid storage change, negative = inhibition": "inconclusive: 6.2%"},
      {"smiles": "COc1ccccc1N1CCN(C(=O)CSc2nnc3c4ccccc4nc(Cc4ccccc4)n23)CC1", "lipid storage change, negative = inhibition": "inconclusive: 9.75%"},
      {"smiles": "CCCN(CCC)C(=O)Cn1c2ccccc2c2nc(=O)cc(C)n21", "lipid storage change, negative = inhibition": "inconclusive: 4.56%"},
      {"smiles": "CC/C(=N\\NC(=S)NC(C)C)c1ccc(OC)c(OC)c1", "lipid storage change, negative = inhibition": "inconclusive: 75.6%"},
      {"smiles": "CC(=O)Nc1ccc2c(c1)nc(C)n2Cc1ccccc1", "Potency": "inconclusive: 29.1 µM [activator, single point]"},
      {"smiles": "COc1cc(/C=N\\NC(=O)c2ccc(Cn3nc([N+](=O)[O-])c(Cl)c3C)o2)ccc1O", "Potency": "inconclusive: 23.1 µM [rising, partial curve]"},
      {"smiles": "COC(=O)N/N=C/c1ccc(Oc2ccccc2)cc1", "lipid storage change, negative = inhibition": "inconclusive: 39.1%"},
      {"smiles": "c1ccc(Cc2ccc(OCCCNC3CCCC3)cc2)cc1", "lipid storage change, negative = inhibition": "inconclusive: -25.9% [at 9.22 µM]"},
      {"smiles": "CN(c1ccccc1)S(=O)(=O)c1ccc(NC(=S)Nc2ccccc2)cc1", "lipid storage change, negative = inhibition": "inconclusive: 32%"},
      {"smiles": "Cc1ccc(C2=NN=C(NC(=O)CSc3nnc4c5ccccc5n(C)c4n3)SC2)cc1", "lipid storage change, negative = inhibition": "inconclusive: 27.4%"},
      {"smiles": "CCc1ccc(OCc2nnc(SCCN3CCOCC3)n2CC)cc1", "lipid storage change, negative = inhibition": "inconclusive: 17.7%"},
      {"smiles": "O=C(NCCCNC(=O)c1cccs1)c1cccs1", "Potency": "inconclusive: 29.1 µM [falling, single point]"},
      {"smiles": "CC1CC(C)CN(S(=O)(=O)c2ccc3c(c2)CCN3C(=O)C2CC2)C1", "note": "(stereo unspecified)", "Potency": "inconclusive: 13 µM [activator, partial curve]"},
      {"smiles": "CCCC(=O)Nc1ccc(C(=O)NNC(=S)NC(=O)c2ccc(Br)o2)cc1", "lipid storage change, negative = inhibition": "inconclusive: 22.8%"},
      {"smiles": "O=C(O)Cn1nc(-c2ccccc2)ccc1=O", "Potency": "inconclusive: 20.6 µM [activator, partial curve]"},
      {"smiles": "O=C(CSc1nc2ccccc2c(=O)n1Cc1ccc(C(=O)NC2CC2)cc1)NCc1ccco1", "lipid storage change, negative = inhibition": "inconclusive: -96.1%"},
      {"smiles": "COc1cccc(C(=O)COc2cccc(NC(=O)c3cccc([N+](=O)[O-])c3)c2)c1", "Potency": "active: 18.4 µM"},
      {"smiles": "Cc1ccccc1OCCC(=O)OCC(=O)Nc1ccc(C(N)=O)cc1", "lipid storage change, negative = inhibition": "inactive: 3.07%"},
      {"smiles": "Cc1ccc(CNCc2ccc3c(c2)OCO3)cc1", "Potency": "inconclusive: 29.1 µM [activator, single point]"},
      {"smiles": "Cc1cc(=O)oc(C)c1C(=O)Nc1ccc2nsnc2c1", "lipid storage change, negative = inhibition": "inconclusive: 16.3%"},
      {"smiles": "Cc1cc(Br)ccc1OCCOCCN1CCCC1", "lipid storage change, negative = inhibition": "inconclusive: 70.4%"},
      {"smiles": "CCc1ccccc1NC(=O)CN(C)C(=O)c1cc(C2CC2)nn1-c1ccccc1", "lipid storage change, negative = inhibition": "inconclusive: -37.1%"},
      {"smiles": "CCCN(CCC)C(=O)CCSCCC(=O)N(CCC)CCC", "Potency": "inconclusive: 0.259 µM [falling, full curve, poor fit]"},
      {"smiles": "CCC/C(=N/NC(=O)c1ccc2c(c1)OCO2)c1cccs1", "Potency": "inconclusive: 0.146 µM [activator, full curve, poor fit]"},
      {"smiles": "CC(=O)c1c(C)[nH]c(C(=O)OC2CCCCC2=O)c1C", "note": "(stereo unspecified)", "Potency": "inconclusive: 0.231 µM [falling, full curve, poor fit]"},
      {"smiles": "O=C(CN1CCN(S(=O)(=O)c2ccc(F)cc2)CC1)NC1CCCC1", "Potency": "inconclusive: 0.184 µM [activator, full curve, poor fit]"},
      {"smiles": "O=C(CSc1nnc2ccc(-c3ccccn3)nn12)NCC1CCCO1", "note": "(stereo unspecified)", "lipid storage change, negative = inhibition": "inconclusive: 21.6% [at 9.22 µM]"},
      {"smiles": "O=C(Nc1ccccc1O)c1ccc2c(c1)C(=O)N(N1C(=O)c3ccccc3C1=O)C2=O", "Potency": "inconclusive: 2.31 µM [falling, partial curve, poor fit]"},
      {"smiles": "O=C(COC(=O)C1CC2C=CC1C2)NCc1ccc(F)cc1", "note": "(stereo unspecified)", "lipid storage change, negative = inhibition": "inconclusive: -25.1%"},
      {"smiles": "CC(CN1CCCCC1)NC(=O)c1cc(-c2ccccn2)nc2ccc(Cl)cc12", "note": "(stereo unspecified)", "lipid storage change, negative = inhibition": "inconclusive: 16.3%"},
      {"smiles": "CCOC(=O)c1sc2nc(N3CCOCC3)c3c(c2c1N)CCCC3", "lipid storage change, negative = inhibition": "inconclusive: 13%"},
      {"smiles": "NNc1nc2c(Cl)ccc(Cl)c2s1", "lipid storage change, negative = inhibition": "inconclusive: -6.3%"},
      {"smiles": "Cc1ccc(N(CC(O)CN2CCCCC2)S(=O)(=O)c2ccc(C)cc2)cc1", "note": "(stereo unspecified)", "lipid storage change, negative = inhibition": "inconclusive: 3.69%"},
      {"smiles": "CC(C)CN1CCN=C1N(C)C", "Potency": "inconclusive: 29.1 µM [activator, single point]"},
      {"smiles": "Cc1c(NC(=O)CCCCCN2C(=O)c3ccccc3C2=O)c(=O)n(-c2ccccc2)n1C", "lipid storage change, negative = inhibition": "inconclusive: -5.58%"},
      {"smiles": "CC(=O)c1cccc(CN(C)CC2CCCN(CCc3ccccc3C)C2)c1", "note": "(stereo unspecified)", "lipid storage change, negative = inhibition": "inconclusive: -6.42%"},
      {"smiles": "Cc1ccc(S(=O)(=O)N2CCN(Cc3cc(=O)n4ccccc4n3)CC2)c(C)c1", "Potency": "inconclusive: 4.11 µM [falling, single point]"},
      {"smiles": "O=C(CSc1nnc(-c2ccccc2Br)o1)Nc1cccc2ccccc12", "lipid storage change, negative = inhibition": "inconclusive: 4.06%"},
      {"smiles": "O=C(NCc1cccs1)C(=O)NCC1OCCCN1S(=O)(=O)c1cccs1", "note": "(stereo unspecified)", "lipid storage change, negative = inhibition": "inconclusive: -17.7%"},
      {"smiles": "CCc1ccc(S(=O)(=O)ON2C(=O)c3ccccc3C2=O)cc1", "lipid storage change, negative = inhibition": "inconclusive: 0.145%"},
      {"smiles": "Cc1cc([N+](=O)[O-])c2c(c1C)C1C=CCC1C(c1ccccn1)N2", "note": "(stereo unspecified)", "lipid storage change, negative = inhibition": "inconclusive: 2.48%"},
      {"smiles": "Cc1ccccc1SCC(=O)OCC(=O)N(C)c1c(N)n(Cc2ccccc2)c(=O)[nH]c1=O", "lipid storage change, negative = inhibition": "inconclusive"},
      {"smiles": "CSCCC(NC(=O)c1ccco1)C(=O)N1CC=C(c2ccccc2)CC1", "note": "(stereo unspecified)", "lipid storage change, negative = inhibition": "inconclusive: 3.43%"},
      {"smiles": "COc1ccc(S(=O)(=O)N2CCC(C(=O)NCC3CCCO3)CC2)cc1Cl", "note": "(stereo unspecified)", "Potency": "inconclusive: 0.651 µM [falling, partial curve, poor fit]"},
      {"smiles": "CCCCCCSc1ccc([C@@H]2[C@H]3C(=O)N(C)C(=O)[C@H]3[C@]3(C(=O)OC)CCCCN23)cc1", "Potency": "active: 20.6 µM"},
      {"smiles": "O=C(O)CNC(=O)CCN1C(=O)c2ccccc2C1=O", "Potency": "inconclusive: 29.1 µM [falling, single point]"},
      {"smiles": "Cc1ccc(C2(C)NC(=O)N(CC(=O)N3CCN(C(=O)c4cccs4)CC3)C2=O)cc1", "note": "(stereo unspecified)", "Potency": "inconclusive: 7.31 µM [falling, partial curve, poor fit]"},
      {"smiles": "C=CCn1c(SCc2nc(N)nc(N3CCCCC3)n2)nnc1-c1ccco1", "lipid storage change, negative = inhibition": "inconclusive: -22.8%"},
      {"smiles": "CC1=C(C(=O)N2CCCC(N3CCN(c4ccccc4F)CC3)C2)OCCO1", "note": "(stereo unspecified)", "lipid storage change, negative = inhibition": "inconclusive: 15.4%"},
      {"smiles": "COc1ccccc1C(=O)Nc1ccc2nc3n(c(=O)c2c1)CCCC3", "lipid storage change, negative = inhibition": "inconclusive: -12.1%"},
      {"smiles": "CC1CN(Cc2ccccc2Cl)CC(C)O1", "note": "(stereo unspecified)", "lipid storage change, negative = inhibition": "inconclusive: -155%"},
      {"smiles": "CNC(=O)CC(C(=O)O)c1ccc(OC(C)C)cc1", "note": "(stereo unspecified)", "lipid storage change, negative = inhibition": "inconclusive: 0.513%"},
      {"smiles": "COCCNS(=O)(=O)c1cc(F)ccc1OC", "Potency": "inconclusive: 29.1 µM [cytotoxic, single point]"},
      {"smiles": "Cc1[nH]n(-c2ccccc2)c(=O)c1C=NC1CCCCCC1", "lipid storage change, negative = inhibition": "inconclusive: -52.1% [cytotoxic] [at 0.369 µM]"},
      {"smiles": "Cc1cc(NS(=O)(=O)c2ccc(NC(=O)Cc3ccc([N+](=O)[O-])cc3)cc2)no1", "Potency": "inconclusive: 16.4 µM [activator, partial curve]"},
      {"smiles": "O=C(O)CN1C(=O)C(=O)N(Cc2cccc(F)c2)C1=O", "lipid storage change, negative = inhibition": "inconclusive: 15.1%"},
      {"smiles": "Cc1onc(-c2ccccc2)c1C(=O)NNC(=S)NC(=O)c1ccc(Br)cc1", "Potency": "inconclusive: 29.1 µM [falling, single point]"},
      {"smiles": "CN(C)CCN(C(=O)/C=C/c1cccs1)c1nc2ccc(F)cc2s1", "lipid storage change, negative = inhibition": "inconclusive: -15.8%"},
      {"smiles": "CCOc1ccccc1N1CCN(C(=S)Nc2ccc(S(N)(=O)=O)cc2)CC1", "lipid storage change, negative = inhibition": "inconclusive: 18.7%"},
      {"smiles": "CCc1cccc(N=c2c([N+](=O)[O-])nn(-c3ccc4c(c3)OCCO4)n2O)c1", "lipid storage change, negative = inhibition": "inconclusive: -56.4%"},
      {"smiles": "O=C(c1ccccc1C(=O)N1CCN(c2ccccc2F)CC1)N1CCN(c2ccccc2F)CC1", "Potency": "inconclusive: 29.1 µM [activator, single point]"},
      {"smiles": "CCCCC(=O)NC(=S)NNC(=O)CCc1ccccc1", "lipid storage change, negative = inhibition": "inconclusive: 16.4%"},
      {"smiles": "COc1ccc(N2CC(C(=O)NCc3ccccc3)CC2=O)cc1", "note": "(stereo unspecified)", "lipid storage change, negative = inhibition": "inconclusive: 11.5%"},
      {"smiles": "C=C(C)c1cccc(C(C)(C)NC(=O)NCCCN2CCCC2=O)c1", "lipid storage change, negative = inhibition": "inconclusive: -0.0102%"},
      {"smiles": "C/C(=N\\NC(=O)c1ccc(CSc2nc(C)cc(C)n2)cc1)C1CCCCC1", "lipid storage change, negative = inhibition": "inconclusive: -12.1%"},
      {"smiles": "O=C1N/C(=N/N=C/c2ccccc2O)SC1Cc1ccc(F)cc1", "note": "(stereo unspecified)", "lipid storage change, negative = inhibition": "inconclusive: 20.6%"}
    ]}
  ]
}
